The record followed here is publication PMC2667391.

In this assay the target is T1, Myc-tagged MAP1S (full length, from pUHD10-3) (UniProt Q66K74).
T1 sequence: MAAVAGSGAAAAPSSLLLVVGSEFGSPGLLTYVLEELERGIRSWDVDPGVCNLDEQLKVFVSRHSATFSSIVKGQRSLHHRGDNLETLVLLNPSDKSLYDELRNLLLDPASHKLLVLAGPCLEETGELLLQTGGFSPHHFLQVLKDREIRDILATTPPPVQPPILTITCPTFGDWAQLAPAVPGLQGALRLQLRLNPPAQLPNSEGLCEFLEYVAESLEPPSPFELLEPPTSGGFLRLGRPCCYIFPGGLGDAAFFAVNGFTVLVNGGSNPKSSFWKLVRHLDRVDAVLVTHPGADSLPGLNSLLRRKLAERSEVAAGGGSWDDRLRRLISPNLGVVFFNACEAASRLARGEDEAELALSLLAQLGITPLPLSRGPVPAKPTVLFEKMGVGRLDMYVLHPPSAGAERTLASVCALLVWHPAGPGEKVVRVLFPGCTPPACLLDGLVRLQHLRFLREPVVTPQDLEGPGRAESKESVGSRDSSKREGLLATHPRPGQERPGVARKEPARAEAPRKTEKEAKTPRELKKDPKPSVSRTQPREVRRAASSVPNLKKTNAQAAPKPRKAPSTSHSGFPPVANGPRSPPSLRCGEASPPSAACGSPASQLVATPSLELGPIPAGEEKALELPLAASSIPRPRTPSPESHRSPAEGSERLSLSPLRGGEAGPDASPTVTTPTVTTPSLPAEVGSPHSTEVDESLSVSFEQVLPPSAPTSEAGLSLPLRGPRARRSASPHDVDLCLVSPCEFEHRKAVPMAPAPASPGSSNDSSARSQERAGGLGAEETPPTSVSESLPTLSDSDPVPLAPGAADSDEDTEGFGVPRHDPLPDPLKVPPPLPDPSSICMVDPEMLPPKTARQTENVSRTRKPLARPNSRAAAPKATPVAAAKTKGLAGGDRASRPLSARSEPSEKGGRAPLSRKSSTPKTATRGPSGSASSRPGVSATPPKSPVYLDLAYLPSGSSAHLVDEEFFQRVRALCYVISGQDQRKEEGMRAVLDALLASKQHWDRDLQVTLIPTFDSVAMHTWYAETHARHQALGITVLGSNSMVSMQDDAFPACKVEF
The assay is described as follows: co-IP; HepG2 cells transfected with pcDNA3mim and/or pUHD10-3 plus pUHD15-1; 24 h after transfection lysates on anti-c-Myc column (ProFound c-Myc Tag IP/Co-IP Kit); eluates blotted with anti-mimitin and anti-Myc antibodies.

These are yes or no findings as the source states them, for the method shown. In cells and extracts the contact can be indirect. Binding can be weak; no strength is given. Tags and fused reporters may be left off the sequences shown.

Take “mimitin overexpressed from pcDNA3mim (human)”: the binding entry was “binds”.
